{"source": "PubChem BioAssay AID504444", "about": "(National Center for Advancing Translational Sciences (NCATS), 2011)", "note": "Hit rate of the full screen: of about 360,000 compounds, about 7,500 (2.1%) were called active. The inconclusive results got no clear call from the source; some entries with a clear call stand among them for comparison. The call rests on the fitted dose curve; in most records, active means well fitted inhibition curve with a large enough effect; inconclusive means small, poorly fitted or top-dose-only effect, or effect the other way; inactive means flat fitted curve, though single readings scatter. Potencies of inconclusive entries are doubtful fits and often do not repeat. On the % scale 0 is the no-effect control and ±100 the full control effect; potency means the concentration at half of the fitted maximal effect."}
{"assay": "Nrf2 qHTS screen for inhibitors; further: nearly all actives have a fitted effect of over 60% in size", "conditions": "A549 ARE-Fluc reporter, luciferase luminescence, 18-24 h; activity change, negative = inhibition: at 46 µM (top of the series)", "procedure,_shortened": "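A549 ARE_Fluc cells, 5000/well, 5% FBS OPTI-MEM; compounds in dose-response, 18-24 h at 37 °C/5% CO2; CellTiter-Fluor viability read (Ex 405/Em 525), then BugLite luciferase luminescence = Nrf2 activity.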"}
{"smiles": "CC(=O)N1c2c(cc(Br)cc2S(=O)(=O)Nc2c(C)n(C)n(-c3ccccc3)c2=O)CC1C", "note": "(stereo not drawn)", "activity change, negative = inhibition": "inactive: -0.677%"}
{"smiles": "COc1cccc(NC(=O)CSc2ncnc3c2oc2ccccc23)c1", "Potency": "inconclusive: 18.4 µM [falling, single point]"}
{"smiles": "O=C(NCc1ccco1)C(=S)N1CCCC1", "Potency": "inconclusive: 11.6 µM [activator, partial curve, poor fit]"}
{"smiles": "C/C(=N/NC(=O)c1ccoc1C)c1ccc(NC(=O)C2CCCC2)cc1", "Potency": "inconclusive: 10.3 µM [activator, partial curve]"}
{"smiles": "O=C(c1ccc(COc2c(F)c(F)cc(F)c2F)o1)N1CCN(c2ccc(Cl)cc2)CC1", "Potency": "inconclusive: 29.1 µM [falling, single point]"}
{"smiles": "Cc1ccc2c(c1)c(N=NC(N)=S)c(O)n2Cc1ccccc1", "activity change, negative = inhibition": "inactive: -24.6%"}
{"smiles": "C=CC[C@H]1CC(C)=C[C@H](CC=C)N1C(=O)c1cc(COc2ccccc2SC)on1", "Potency": "inconclusive: 29.1 µM [falling, single point]"}
{"smiles": "CC(=O)N1CCN(c2ccc(NC(=O)COc3ccc(Cl)cc3Cl)cc2)CC1", "Potency": "inconclusive: 29.1 µM [falling, single point]"}
{"smiles": "O=C(c1cccc(S(=O)(=O)N2CCN(c3ccccc3)CC2)c1)N1CCCCCCC1", "Potency": "inconclusive: 18.4 µM [falling, partial curve]"}
{"smiles": "C/C(=N\\NC(=O)COc1cccc(Cl)c1)c1ccc2c(c1)OCCO2", "activity change, negative = inhibition": "inactive: -21.6%"}
{"smiles": "CCNc1nc(NCC)n2c(SC(C(=O)Nc3cc(Cl)cc(Cl)c3)c3ccccc3)nnc2n1", "note": "(stereo not drawn)", "Potency": "inconclusive: 10.3 µM [activator, partial curve]"}
{"smiles": "Cc1cc(NC(=O)CN2C(=O)[C@@H]3[C@H](C2=O)[C@@H]2C[C@H]3C(Br)C2Br)no1", "note": "(stereo partly drawn)", "Potency": "inconclusive: 2.31 µM [activator, full curve, poor fit]"}
{"smiles": "O=C1c2ccccc2NC(c2cccc(F)c2)N1Cc1ccco1", "note": "(stereo not drawn)", "Potency": "inconclusive: 29.1 µM [falling, single point]"}
{"smiles": "O=C1c2ccccc2C(=O)N1CCC1(O)C(c2ccccc2)=Nc2ccccc21", "note": "(stereo not drawn)", "Potency": "inconclusive: 18.4 µM [activator, partial curve]"}
{"smiles": "CC1CCN(C(=O)CSc2nc(-c3ccccc3)no2)CC1", "Potency": "inconclusive: 18.4 µM [activator, single point]"}
{"smiles": "O=C(NN=C1C2CC3CC1CC(Cl)(C3)C2)c1cccs1", "Potency": "inconclusive: 16.4 µM [activator, partial curve]"}
{"smiles": "CCc1nc(N)nc(N)c1-c1ccc(N(C)Cc2ccccc2)c([N+](=O)[O-])c1", "Potency": "active: 1.3 µM"}
{"smiles": "C=CCOC(=O)C1=C(C)NC(SCC(=O)Nc2nccs2)=C(C#N)C1c1ccc(Cl)cc1", "note": "(stereo not drawn)", "Potency": "inconclusive: 14.1 µM [falling, partial curve, poor fit]"}
{"smiles": "Cc1c(NS(=O)(=O)c2ccccc2)cc(C(C)C)c(O)c1S(=O)(=O)c1ccc(Cl)cc1", "Potency": "inconclusive: 29.1 µM [falling, single point]"}
{"smiles": "COc1ccc(-c2cn(-c3ccc(C)cc3)c(=O)n2CC(=O)Nc2cccc(F)c2)cc1", "Potency": "inconclusive: 25.9 µM [activator, single point]"}
{"smiles": "COC(=O)c1ccc(CNC(=O)c2ccc3oc(C(C)C)nc3c2)cc1", "Potency": "inconclusive: 7.31 µM [activator, partial curve, poor fit]"}
{"smiles": "O=C(NCCc1c[nH]c2ccccc12)C(=O)Nc1cc2c3c(c1)CC(=O)N3CCC2", "Potency": "inconclusive: 18.4 µM [falling, single point]"}
{"smiles": "CN(CC(=O)Nc1ccc(Cl)cc1)C(=O)c1cccc(S(=O)(=O)N2CCN(Cc3ccccc3)CC2)c1", "Potency": "active: 13 µM"}
{"smiles": "CC(=O)Oc1ccc(-c2ccc(C(=O)OCC(=O)c3c(N)n(C)c(=O)n(C)c3=O)cc2)cc1", "Potency": "inconclusive: 16.4 µM [falling, partial curve]"}
{"smiles": "Cc1ccc(C)c(OCCSc2nnc(C)c(=O)[nH]2)c1", "Potency": "inconclusive: 18.4 µM [falling, partial curve, poor fit]"}
{"smiles": "CC(C)C[C@H](NC(=O)c1nc[nH]c1C(=O)N[C@@H](CC(C)C)C(=O)OC(C)(C)C)C(=O)OCc1ccccc1", "Potency": "inconclusive: 20.6 µM [falling, single point]"}
{"smiles": "O=C(Nc1nc2cc3c(cc2s1)OCO3)C1CCCCC1", "Potency": "inconclusive: 0.731 µM [activator, full curve, poor fit]"}
{"smiles": "CC(C)(C)c1ccc(-c2nc3cc(NC(=O)c4cccc(Br)c4)ccc3o2)cc1", "Potency": "inconclusive: 6.51 µM [falling, partial curve, poor fit]"}
{"smiles": "COc1ccc(-n2ccn(CC(=O)NCCc3ccccc3)c(=O)c2=O)cc1OC", "activity change, negative = inhibition": "inactive: 8.96%"}
{"smiles": "CCOC(=O)N1CCN(S(=O)(=O)c2ccc(C(=O)Nc3sc4c(c3C(=O)OC)CCN(C)C4)cc2)CC1", "Potency": "inconclusive: 32.6 µM [falling, single point]"}
{"smiles": "COc1cccc(CNC(=O)Cn2ncc3c4ccccc4n(Cc4ccccc4)c3c2=O)c1", "Potency": "inconclusive: 29.1 µM [falling, single point]"}
{"smiles": "Cc1nn(Cc2cccc(C(=O)Nc3ccn(Cc4ccccc4F)n3)c2)c(C)c1[N+](=O)[O-]", "Potency": "inconclusive: 32.6 µM [falling, single point]"}
{"smiles": "CC(=O)C1C(c2ccc3ncccc3c2)NC(=O)NC1(O)C(F)(F)F", "note": "(stereo not drawn)", "Potency": "inconclusive: 5.8 µM [activator, single point]"}
{"smiles": "Cc1cccn2cc(CNS(=O)(=O)c3ccc4ccccc4c3)nc12", "Potency": "active: 13 µM"}
{"smiles": "CCO[C@H]1OC(C(=O)N2CCN(Cc3ccccc3)CC2)=C[C@@H](C2CCCCC2)[C@@H]1CCCO", "activity change, negative = inhibition": "inactive: -19.4%"}
{"smiles": "O=C(NCc1ccccn1)Nc1ccccc1", "Potency": "inconclusive: 3.66 µM [activator, full curve, poor fit]"}
{"smiles": "Cc1cc(=O)oc2c(C)c(OCC(=O)N3CCN(c4ccc(F)cc4)CC3)ccc12", "Potency": "inconclusive: 20.6 µM [falling, single point]"}
{"smiles": "O=C(O)C(CCC(C(=O)O)c1ccccc1)c1ccccc1", "note": "(stereo not drawn)", "Potency": "inconclusive: 32.6 µM [activator, partial curve, poor fit]"}
{"smiles": "O=C(N/N=C/c1ccc(-c2cccc([N+](=O)[O-])c2)o1)c1ccccc1O", "Potency": "inconclusive: 16.4 µM [falling, single point]"}
{"smiles": "Cc1ccc2c(c1)nnn2C1CCN(CC(=O)c2ccc(Cl)cc2)CC1", "Potency": "inconclusive: 0.517 µM [falling, full curve, poor fit]"}
{"smiles": "Cc1ccc(C)c(CSCc2nc3ccccc3[nH]2)c1", "activity change, negative = inhibition": "inactive: 2.42%"}
{"smiles": "Cc1ccc2cc(C#N)c(N3CCCN(S(=O)(=O)c4ccccc4)CC3)nc2c1C", "Potency": "inconclusive: 29.1 µM [falling, single point]"}
{"smiles": "COC(=O)c1ccc(Cn2cc(C(F)(F)F)cc([N+](=O)[O-])c2=O)cc1", "activity change, negative = inhibition": "inactive: -10.9%"}
{"smiles": "CCCCC(C(=O)NC1CCCC1)N(Cc1ccccc1)C(=O)c1snc(C(N)=O)c1N", "note": "(stereo not drawn)", "Potency": "inconclusive: 25.9 µM [falling, single point]"}
{"smiles": "O=C(Cn1cc(SCc2cccc(Cl)c2)c2ccccc21)N1CCCCCC1", "Potency": "inconclusive: 29.1 µM [falling, single point]"}
{"smiles": "CCc1ccc(Oc2c(C(F)(F)F)oc3c(CN4CCN(C)CC4)c(O)ccc3c2=O)cc1", "activity change, negative = inhibition": "inactive: 3.97%"}
{"smiles": "O=C(Nc1cccc(-c2nn3c(=O)cc(N4CCNCC4)nc3s2)c1)c1ccncc1", "activity change, negative = inhibition": "inactive: 1.41%"}
{"smiles": "Cc1cccc(NC(=O)C(=O)NCC2CCCO2)c1", "note": "(stereo not drawn)", "Potency": "inconclusive: 2.06 µM [activator, full curve]"}
{"smiles": "CC(C)(C)C(=O)c1sc(Nc2ccccc2)nc1N", "Potency": "inconclusive: 1.84 µM [activator, full curve]"}
{"smiles": "CC(/C=N/NC(=O)Cn1nccc1C)=C\\c1ccc(C(C)C)cc1", "Potency": "inconclusive: 10.3 µM [activator, partial curve, poor fit]"}
{"smiles": "Cc1cccc(C)c1OCc1cc(C(=O)N2CCC(c3ccncc3)CC2)no1", "activity change, negative = inhibition": "inactive: 2.67%"}
{"smiles": "COc1ccccc1NC(=O)CCNS(=O)(=O)c1ccc2c(c1)CC(C)N2C(=O)C1CC1", "note": "(stereo not drawn)", "Potency": "inconclusive: 29.1 µM [falling, single point]"}
{"smiles": "CC1Oc2ccccc2OC1C(=O)Nc1ccccn1", "note": "(stereo not drawn)", "activity change, negative = inhibition": "inactive: 10.9%"}
{"smiles": "C[C@H]1CCC/C=C/[C@@H]2C[C@H](O)C[C@H]2[C@H](O)[C@H](S(=O)c2ccc(O)cc2)CC(=O)O1", "note": "(stereo partly drawn)", "Potency": "active: 0.259 µM"}
{"smiles": "Cc1ccc(-n2c(=O)[nH]c3c(C(N)=O)nc(-c4ccc(C)o4)nc32)cc1", "Potency": "inconclusive: 14.6 µM [falling, partial curve]"}
{"smiles": "O=C(Cn1c(=O)n(Cc2ccc3c(c2)OCO3)c(=O)c2oc3ccccc3c21)Nc1ccc(F)cc1", "Potency": "inconclusive: 23.1 µM [activator, partial curve, poor fit]"}
{"smiles": "COC(=O)c1ccc(NS(=O)(=O)c2ccc(SC)cc2)cc1", "Potency": "inconclusive: 23.1 µM [falling, single point]"}
{"smiles": "Cc1ccc(S(=O)(=O)N2CCOCC2)cc1C(=O)N1CCCC1", "Potency": "inconclusive: 0.651 µM [falling, full curve, poor fit]"}
{"smiles": "Cc1cccc(NC(=O)c2nc[nH]c2C(=O)N[C@@H](CCCCNC(=O)OC(C)(C)C)C(=O)OC(C)(C)C)c1", "Potency": "inconclusive: 23.1 µM [falling, single point]"}
{"smiles": "O=C(Cc1ccccc1)Nc1cc2c(cc1Cl)OCCCO2", "Potency": "inconclusive: 23.1 µM [activator, single point]"}
{"smiles": "CC(=O)NC(c1ccc(C)cc1)c1cc([N+](=O)[O-])c2cccnc2c1O", "note": "(stereo not drawn)", "Potency": "active: 11.6 µM"}
{"smiles": "Nc1c(C(O)(C(F)(F)F)C(F)(F)F)ccc2ccccc12", "Potency": "inconclusive: 16.4 µM [falling, partial curve, poor fit]"}
{"smiles": "C=CCn1c(SCc2csc(C)n2)nc2sc3c(c2c1=O)CCCCC3", "Potency": "inconclusive: 29.1 µM [falling, single point]"}
